Part of at least one peptide drawing is inferred or uncertain, most often the ends.
Assay: Thioflavin T-test (ThT-test) of physical stability / fibril formation of the formulations
Assay type: physicochemical
Settings: pH of pharmaceutical formulation 7.4
Protocol: Physical stability of the formulations is evaluated by means of the Thioflavin T-test. The physical stability of the different formulations is characterized by their tendency to form fibrils. A method to determine the presence of fibrils is the Thioflavin T-test. The histological thiazole dye Thioflavin T (ThT) is used as an indicator of amyloid fibril formation. The method is based on the fluorescent characteristics of ThT. […] The physical stability of the formulations is evaluated by the ThT-test after storage of the formulation is top filled glass cartridges for various time periods.

[1] = pH of Compound 1 before freeze drying 8,0, 3 mg/ml
[2] = pH of Compound 1 before freeze drying 8,0, 6.25 mg/ml
[3] = pH of Compound 1 before freeze drying 9,5, 3 mg/ml
[4] = pH of Compound 1 before freeze drying 9,5, 6.25 mg/ml
[5] = pH of Compound 1 before freeze drying 11,5, 3 mg/ml
[6] = pH of Compound 1 before freeze drying 11,5, 6.25 mg/ml
[7] = pH of solution containing the drug substance 8.0, 6.25 mg/ml
[8] = pH of solution containing the drug substance 11.5, 6.25 mg/ml

CCCCCCCCCCCCCCCC(=O)N[C@@H](CCC(=O)NCCCC[C@H](NC(=O)[C@H](C)NC(=O)[C@H](C)NC(=O)[C@H](CCC(N)=O)NC(=O)CNC(=O)[C@H](CCC(=O)O)NC(=O)[C@H](CC(C)C)NC(=O)[C@H](Cc1ccc(O)cc1)NC(=O)[C@H](CO)NC(=O)[C@H](CO)NC(=O)[C@@H](NC(=O)[C@H](CC(=O)O)NC(=O)[C@H](CO)NC(=O)[C@@H](NC(=O)[C@H](Cc1ccccc1)NC(=O)[C@@H](NC(=O)CNC(=O)[C@H](CCC(=O)O)NC(=O)[C@H](C)NC(=O)[C@@H](N)Cc1c[nH]cn1)[C@@H](C)O)[C@@H](C)O)C(C)C)C(=O)N[C@@H](CCC(=O)O)C(=O)N[C@@H](Cc1ccccc1)C(=O)N[C@H](C(=O)N[C@@H](C)C(=O)N[C@@H](Cc1c[nH]c2ccccc12)C(=O)N[C@@H](CC(C)C)C(=O)N[C@H](C(=O)N[C@@H](CCCNC(=N)N)C(=O)NCC(=O)N[C@@H](CCCNC(=N)N)C(=O)NCC(=O)O)C(C)C)[C@@H](C)CC)C(=O)O [Compound 1, Arg^34, Lys^26 (N^∈-(γ-Glu(N^α-hexadecanoyl)))-GLP-1 (7-37)]
Fluorescence units after storage at 37°C T = 0 week [1]: 6 fluorescence units
Fluorescence units after storage at 37°C T = 1 month [1]: 28 fluorescence units
Fluorescence units after storage at 37°C T = 0 week [2]: 13 fluorescence units
Fluorescence units after storage at 37°C T = 1 month [2]: 37 fluorescence units
Fluorescence units after storage at 37°C T = 1 week [2]: 20 fluorescence units
Fluorescence units after storage at 37°C T = 0 week [3]: 6 fluorescence units
Fluorescence units after storage at 37°C T = 1 month [3]: 7 fluorescence units
Fluorescence units after storage at 37°C T = 0 week [4]: 14 fluorescence units
Fluorescence units after storage at 37°C T = 1 month [4]: 13 fluorescence units
Fluorescence units after storage at 37°C T = 1 week [4]: 13 fluorescence units
Fluorescence units after storage at 37°C T = 0 week [5]: 6 fluorescence units
Fluorescence units after storage at 37°C T = 1 month [5]: 7 fluorescence units
Fluorescence units after storage at 37°C T = 0 week [6]: 14 fluorescence units
Fluorescence units after storage at 37°C T = 1 month [6]: 14 fluorescence units
Fluorescence units after storage at 37°C T = 1 week [6]: 13 fluorescence units
Fluorescence units after storage at 37°C T = 0 week [7]: 14 fluorescence units
Fluorescence units after storage at 37°C T = 1 month [7]: 41 fluorescence units
Fluorescence units after storage at 37°C T = 1 week [7]: 20 fluorescence units
Fluorescence units after storage at 37°C T = 0 week [8]: 13 fluorescence units
Fluorescence units after storage at 37°C T = 1 month [8]: 13 fluorescence units
Fluorescence units after storage at 37°C T = 1 week [8]: 12 fluorescence units

Reference: patent EP1633390B1, “STABILIZED PHARMACEUTICAL GLP-1 PEPTIDE COMPOSITIONS” (NOVO NORDISK A/S, priority 2003, dated 2012)
